Reference: paper PMC6424098
Residue numbers refer to the chain shown, from its start. These are yes or no findings as the source states them, for the method shown. In cells and extracts the contact can be indirect. Some results given as binding are weak or reduced against the parent protein; the word gives no strength. For some of these results: Sequences can lack the tags named with a protein. One block for each substance: values may come before it.

The chains behind the UniProt entries cited, without tags or fusion partners. Where a name states a change or a piece, a line headed by the entry shows the natural chain unless it says otherwise.
UniProt O95983: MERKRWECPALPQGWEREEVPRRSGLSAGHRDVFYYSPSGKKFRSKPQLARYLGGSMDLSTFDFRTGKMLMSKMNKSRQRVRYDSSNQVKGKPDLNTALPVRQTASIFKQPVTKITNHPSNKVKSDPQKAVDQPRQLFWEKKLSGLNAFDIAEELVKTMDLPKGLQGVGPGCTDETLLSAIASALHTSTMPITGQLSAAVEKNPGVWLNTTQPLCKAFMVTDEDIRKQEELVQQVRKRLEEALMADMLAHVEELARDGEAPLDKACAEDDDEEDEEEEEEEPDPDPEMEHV
UniProt Q9UBB5: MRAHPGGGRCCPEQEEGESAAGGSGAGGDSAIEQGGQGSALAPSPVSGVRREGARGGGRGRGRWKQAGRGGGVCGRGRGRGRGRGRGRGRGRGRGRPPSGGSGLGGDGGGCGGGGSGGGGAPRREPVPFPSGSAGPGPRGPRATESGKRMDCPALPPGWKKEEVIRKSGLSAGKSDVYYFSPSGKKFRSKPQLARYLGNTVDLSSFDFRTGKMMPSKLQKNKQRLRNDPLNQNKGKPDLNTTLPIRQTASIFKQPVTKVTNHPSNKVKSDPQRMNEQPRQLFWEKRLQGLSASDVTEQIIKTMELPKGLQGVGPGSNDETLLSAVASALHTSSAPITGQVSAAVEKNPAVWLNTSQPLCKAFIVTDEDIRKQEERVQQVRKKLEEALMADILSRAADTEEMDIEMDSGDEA
UniProt Q9Y5B9: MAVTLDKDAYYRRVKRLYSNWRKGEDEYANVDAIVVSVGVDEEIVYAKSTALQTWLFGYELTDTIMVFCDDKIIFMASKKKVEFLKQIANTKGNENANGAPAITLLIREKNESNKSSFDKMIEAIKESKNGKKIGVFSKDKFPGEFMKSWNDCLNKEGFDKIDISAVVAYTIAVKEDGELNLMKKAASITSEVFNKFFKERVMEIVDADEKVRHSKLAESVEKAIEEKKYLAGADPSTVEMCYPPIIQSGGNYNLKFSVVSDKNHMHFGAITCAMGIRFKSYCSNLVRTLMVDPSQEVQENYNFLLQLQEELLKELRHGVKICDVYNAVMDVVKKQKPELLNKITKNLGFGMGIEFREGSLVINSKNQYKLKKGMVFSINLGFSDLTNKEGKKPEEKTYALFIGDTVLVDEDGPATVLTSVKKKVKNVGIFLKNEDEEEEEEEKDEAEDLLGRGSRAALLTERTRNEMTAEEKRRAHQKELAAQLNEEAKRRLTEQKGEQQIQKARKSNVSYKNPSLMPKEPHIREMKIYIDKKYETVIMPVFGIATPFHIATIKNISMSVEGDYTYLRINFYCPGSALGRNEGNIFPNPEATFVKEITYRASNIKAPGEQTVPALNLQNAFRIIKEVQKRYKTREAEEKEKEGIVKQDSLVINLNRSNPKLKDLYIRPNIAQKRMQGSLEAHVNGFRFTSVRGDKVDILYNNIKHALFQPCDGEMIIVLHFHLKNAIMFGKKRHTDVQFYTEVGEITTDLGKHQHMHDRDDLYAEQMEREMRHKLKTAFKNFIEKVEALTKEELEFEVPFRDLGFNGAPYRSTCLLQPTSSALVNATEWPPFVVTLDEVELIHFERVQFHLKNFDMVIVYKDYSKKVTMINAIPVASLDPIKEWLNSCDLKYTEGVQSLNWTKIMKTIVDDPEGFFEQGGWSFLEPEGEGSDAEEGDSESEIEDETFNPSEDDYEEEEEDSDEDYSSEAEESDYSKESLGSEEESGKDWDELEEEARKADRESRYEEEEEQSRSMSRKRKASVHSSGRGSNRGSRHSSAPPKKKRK
UniProt P40763: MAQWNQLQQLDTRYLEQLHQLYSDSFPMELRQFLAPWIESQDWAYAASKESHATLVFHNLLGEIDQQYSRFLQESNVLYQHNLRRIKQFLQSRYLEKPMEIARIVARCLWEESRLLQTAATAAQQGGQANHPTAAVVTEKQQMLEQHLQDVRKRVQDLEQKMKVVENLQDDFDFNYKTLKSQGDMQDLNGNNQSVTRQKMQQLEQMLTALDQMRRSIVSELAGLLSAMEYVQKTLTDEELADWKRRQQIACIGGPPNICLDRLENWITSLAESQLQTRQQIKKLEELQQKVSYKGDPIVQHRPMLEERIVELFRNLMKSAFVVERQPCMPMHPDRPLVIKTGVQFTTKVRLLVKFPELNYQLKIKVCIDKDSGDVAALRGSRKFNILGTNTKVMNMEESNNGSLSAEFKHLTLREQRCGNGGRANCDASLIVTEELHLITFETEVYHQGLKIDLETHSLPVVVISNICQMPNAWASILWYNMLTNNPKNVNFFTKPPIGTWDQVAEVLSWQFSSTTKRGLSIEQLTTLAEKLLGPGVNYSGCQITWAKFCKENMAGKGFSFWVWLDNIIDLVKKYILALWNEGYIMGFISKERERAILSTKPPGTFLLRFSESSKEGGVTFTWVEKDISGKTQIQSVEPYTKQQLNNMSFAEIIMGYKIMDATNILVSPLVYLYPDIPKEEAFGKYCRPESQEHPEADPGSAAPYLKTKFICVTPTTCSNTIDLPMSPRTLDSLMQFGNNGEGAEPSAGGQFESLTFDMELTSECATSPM
UniProt Q92830: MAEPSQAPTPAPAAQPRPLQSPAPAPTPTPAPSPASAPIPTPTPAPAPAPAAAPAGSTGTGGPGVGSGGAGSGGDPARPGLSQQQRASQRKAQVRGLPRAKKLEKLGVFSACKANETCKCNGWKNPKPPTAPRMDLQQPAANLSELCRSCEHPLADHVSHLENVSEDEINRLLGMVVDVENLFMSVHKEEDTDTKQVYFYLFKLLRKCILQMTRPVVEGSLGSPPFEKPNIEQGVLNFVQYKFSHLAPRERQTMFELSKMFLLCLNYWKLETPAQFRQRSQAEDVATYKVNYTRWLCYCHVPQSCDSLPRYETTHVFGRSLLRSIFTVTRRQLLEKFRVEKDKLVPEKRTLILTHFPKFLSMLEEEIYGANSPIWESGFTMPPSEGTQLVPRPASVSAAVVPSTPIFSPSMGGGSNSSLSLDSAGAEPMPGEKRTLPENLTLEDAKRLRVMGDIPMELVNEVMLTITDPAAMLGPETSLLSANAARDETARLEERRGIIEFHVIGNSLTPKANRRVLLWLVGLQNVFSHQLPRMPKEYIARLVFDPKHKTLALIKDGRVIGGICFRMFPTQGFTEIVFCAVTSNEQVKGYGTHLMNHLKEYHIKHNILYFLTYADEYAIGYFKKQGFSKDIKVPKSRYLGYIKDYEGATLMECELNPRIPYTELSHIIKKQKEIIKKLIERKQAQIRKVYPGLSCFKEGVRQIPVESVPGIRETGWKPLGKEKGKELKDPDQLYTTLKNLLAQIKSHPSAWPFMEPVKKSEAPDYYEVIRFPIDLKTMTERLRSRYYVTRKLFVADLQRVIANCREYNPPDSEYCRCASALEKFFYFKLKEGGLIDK
UniProt Q9BQA1: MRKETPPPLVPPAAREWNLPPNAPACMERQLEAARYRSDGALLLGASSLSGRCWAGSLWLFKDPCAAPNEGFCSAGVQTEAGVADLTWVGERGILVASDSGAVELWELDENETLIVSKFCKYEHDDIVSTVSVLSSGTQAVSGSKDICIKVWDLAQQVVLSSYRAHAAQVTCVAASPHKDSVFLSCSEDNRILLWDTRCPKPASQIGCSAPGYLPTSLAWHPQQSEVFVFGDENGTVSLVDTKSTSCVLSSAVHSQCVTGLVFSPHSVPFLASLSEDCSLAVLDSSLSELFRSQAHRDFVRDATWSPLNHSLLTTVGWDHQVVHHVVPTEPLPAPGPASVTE
UniProt Q04206: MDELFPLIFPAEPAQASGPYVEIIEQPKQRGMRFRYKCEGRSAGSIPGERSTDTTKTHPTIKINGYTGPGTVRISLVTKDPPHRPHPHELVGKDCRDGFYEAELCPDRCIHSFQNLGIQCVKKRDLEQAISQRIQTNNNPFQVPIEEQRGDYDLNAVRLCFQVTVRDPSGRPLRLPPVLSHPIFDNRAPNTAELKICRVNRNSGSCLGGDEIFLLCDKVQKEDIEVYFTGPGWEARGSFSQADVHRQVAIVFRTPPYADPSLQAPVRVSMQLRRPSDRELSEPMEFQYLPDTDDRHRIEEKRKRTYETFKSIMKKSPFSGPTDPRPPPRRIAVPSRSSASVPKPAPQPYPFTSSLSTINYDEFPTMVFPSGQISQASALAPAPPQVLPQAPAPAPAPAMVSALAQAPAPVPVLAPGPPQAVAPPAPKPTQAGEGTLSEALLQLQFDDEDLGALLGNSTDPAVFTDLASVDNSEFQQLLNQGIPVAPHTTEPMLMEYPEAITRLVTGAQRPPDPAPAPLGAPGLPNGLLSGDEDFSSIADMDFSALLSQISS
UniProt Q9UBL3: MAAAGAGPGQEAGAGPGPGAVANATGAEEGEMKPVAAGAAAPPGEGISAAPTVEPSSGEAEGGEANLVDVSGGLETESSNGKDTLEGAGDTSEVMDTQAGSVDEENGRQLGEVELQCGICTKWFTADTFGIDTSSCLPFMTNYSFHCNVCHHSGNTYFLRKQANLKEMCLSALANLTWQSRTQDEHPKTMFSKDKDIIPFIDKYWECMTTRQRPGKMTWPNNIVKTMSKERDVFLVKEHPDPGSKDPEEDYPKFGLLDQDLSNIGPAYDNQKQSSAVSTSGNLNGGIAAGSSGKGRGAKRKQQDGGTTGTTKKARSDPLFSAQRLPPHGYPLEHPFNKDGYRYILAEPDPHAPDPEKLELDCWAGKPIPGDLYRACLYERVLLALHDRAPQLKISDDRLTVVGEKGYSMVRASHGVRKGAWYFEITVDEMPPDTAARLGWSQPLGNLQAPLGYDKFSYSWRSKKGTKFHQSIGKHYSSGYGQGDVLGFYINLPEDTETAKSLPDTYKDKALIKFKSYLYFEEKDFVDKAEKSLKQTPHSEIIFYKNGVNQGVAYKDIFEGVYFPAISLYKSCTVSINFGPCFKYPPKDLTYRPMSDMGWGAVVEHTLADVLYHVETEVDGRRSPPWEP
UniProt Q9NPF5: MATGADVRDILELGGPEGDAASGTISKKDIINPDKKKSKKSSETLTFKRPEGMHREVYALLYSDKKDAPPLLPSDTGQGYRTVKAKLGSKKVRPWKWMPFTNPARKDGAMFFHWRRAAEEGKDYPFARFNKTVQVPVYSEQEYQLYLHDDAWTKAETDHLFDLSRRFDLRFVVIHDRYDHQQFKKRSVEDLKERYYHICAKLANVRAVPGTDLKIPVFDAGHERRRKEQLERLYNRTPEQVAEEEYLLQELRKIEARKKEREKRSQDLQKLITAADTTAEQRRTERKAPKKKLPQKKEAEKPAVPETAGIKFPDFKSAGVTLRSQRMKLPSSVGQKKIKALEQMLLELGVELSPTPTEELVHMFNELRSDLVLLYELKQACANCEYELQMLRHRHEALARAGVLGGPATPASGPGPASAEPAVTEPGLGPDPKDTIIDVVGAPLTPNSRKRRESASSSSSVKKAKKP
UniProt Q04726: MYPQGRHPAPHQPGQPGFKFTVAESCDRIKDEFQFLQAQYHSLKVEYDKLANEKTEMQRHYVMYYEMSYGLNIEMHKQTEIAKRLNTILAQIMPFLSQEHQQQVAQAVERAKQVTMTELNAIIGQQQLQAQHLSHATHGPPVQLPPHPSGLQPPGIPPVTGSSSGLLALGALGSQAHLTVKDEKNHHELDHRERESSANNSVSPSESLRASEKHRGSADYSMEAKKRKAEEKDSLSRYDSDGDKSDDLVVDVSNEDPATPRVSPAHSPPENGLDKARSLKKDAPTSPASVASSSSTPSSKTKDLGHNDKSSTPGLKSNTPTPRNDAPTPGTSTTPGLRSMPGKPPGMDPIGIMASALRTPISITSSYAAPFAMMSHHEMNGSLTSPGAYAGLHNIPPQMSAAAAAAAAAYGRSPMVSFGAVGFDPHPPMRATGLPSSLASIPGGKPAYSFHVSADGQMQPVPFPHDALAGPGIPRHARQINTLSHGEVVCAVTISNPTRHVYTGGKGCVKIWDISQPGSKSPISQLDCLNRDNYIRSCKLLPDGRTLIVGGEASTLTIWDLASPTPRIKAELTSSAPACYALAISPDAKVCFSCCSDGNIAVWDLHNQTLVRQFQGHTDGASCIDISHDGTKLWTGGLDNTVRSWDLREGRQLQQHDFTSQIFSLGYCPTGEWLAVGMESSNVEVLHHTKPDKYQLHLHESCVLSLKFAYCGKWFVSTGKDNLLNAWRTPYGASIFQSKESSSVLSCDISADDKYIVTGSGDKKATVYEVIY
UniProt O95619: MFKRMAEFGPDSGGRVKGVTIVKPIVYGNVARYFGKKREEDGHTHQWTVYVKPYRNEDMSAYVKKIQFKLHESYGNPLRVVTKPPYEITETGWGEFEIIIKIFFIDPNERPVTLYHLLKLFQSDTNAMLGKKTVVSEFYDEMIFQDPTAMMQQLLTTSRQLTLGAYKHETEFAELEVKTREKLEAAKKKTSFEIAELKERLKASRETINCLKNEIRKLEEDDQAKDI

How the values were obtained:
[1] = biological target: T1, FLAG-tagged C/EBPβ (Figure 6A, 6B) (UniProt Q05826); assay: co-IP; HEK293T cells; FLAG-tagged C/EBPβ with the MLL/Ash2/Wdr5 complex (Figure 6A) and co-expressed with GFP-tagged Spt16 and SSRP1 (Figure 6B left)
T1 sequence: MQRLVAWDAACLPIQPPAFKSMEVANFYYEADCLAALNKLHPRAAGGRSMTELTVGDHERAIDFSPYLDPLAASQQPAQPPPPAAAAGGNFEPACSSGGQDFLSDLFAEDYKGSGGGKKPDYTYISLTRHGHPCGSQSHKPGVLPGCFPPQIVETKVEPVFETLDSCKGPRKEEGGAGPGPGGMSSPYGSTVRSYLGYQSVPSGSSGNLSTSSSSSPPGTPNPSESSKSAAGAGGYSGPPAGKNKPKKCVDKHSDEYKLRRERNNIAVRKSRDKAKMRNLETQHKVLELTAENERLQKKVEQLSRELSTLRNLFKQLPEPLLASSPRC

FLAG-tagged LAP* C/EBPβ = biological target: T2, FLAG-tagged LAP* C/EBPβ (UniProt Q05826); assay: co-IP; FLAG-tagged C/EBPβ constructs expressed in HEK293 (HEK293T) cells and immunoprecipitated; endogenous partners detected by immunoblotting (Figures 4C, 4D, 5B, 6B right)
T2 sequence: T1 sequence

MBD3 (GFDP-tagged) = MBD3 (GFDP-tagged) (UniProt O95983); assay: co-IP; HEK293T cells; immunoprecipitation of HA-tagged MBD2 or GFP-tagged MBD3, detection by western blot (Figure 6D)
MBD2 (HA-tagged) = MBD2 (HA-tagged) (UniProt Q9UBB5); assay: as above
[2] = biological target: T1, FLAG-tagged C/EBPβ (Figure 6A, 6B); assay: co-IP; FLAG-tagged C/EBPβ constructs expressed in HEK293 (HEK293T) cells and immunoprecipitated; endogenous partners detected by immunoblotting (Figures 4C, 4D, 5B, 6B right)
[3] = biological target: T3, FLAG-tagged C/EBPβ R193L (chicken) (UniProt Q05826); assay: as above
T3 sequence: T1 sequence with R193L

[4] = biological target: T4, FLAG-tagged C/EBPβ wild-type (chicken) (UniProt Q05826); assay: as above
T4 sequence: T1 sequence

[5] = biological target: T5, FLAG-tagged C/EBPβ R193A (chicken) (UniProt Q05826); assay: as above
T5 sequence: T1 sequence with R193A

[6] = biological target: T6, FLAG-tagged C/EBPβ R60L (chicken) (UniProt Q05826); assay: as above
T6 sequence: T1 sequence with R60L

[7] = biological target: T7, FLAG-tagged C/EBPβ R60A (chicken) (UniProt Q05826); assay: as above
T7 sequence: T1 sequence with R60A

binding [1]: binds
Substance: GFP-tagged Spt16 and SSRP1 (FACT complex, co-expressed) (from UniProt Q9Y5B9 1-1047; Q08945 1-709)

binding (FLAG-tagged LAP* C/EBPβ): binds
Substance: signal transducer and activator of transcription STAT3 (from UniProt P40763 1-770)

binding [1]: binds
Substance: MLL (from UniProt Q03164 1-3969)

binding (FLAG-tagged LAP* C/EBPβ): binds
Substance: histone acetyltransferase GCN5 of the SAGA complex (from UniProt Q92830 1-837)

binding (MBD3 (GFDP-tagged)): no binding
binding (MBD2 (HA-tagged)): binds
Substance: WDR77(MEP50)/PRMT5 sub-module (from UniProt Q9BQA1 1-342; O14744 1-637) (complex)

binding [2]: binds
Substance: endogenous FACT complex (Spt16 and SSRP1) (from UniProt Q9Y5B9 1-1047; Q08945 1-709)

binding [3]: binds
binding [4]: binds
binding [5]: binds
Substance: nuclear factor kappa B subunit RelA (from UniProt Q04206 1-551)

binding [1]: binds
Substance: Ash2 (Figure 6A) (from UniProt Q9UBL3 1-628)

binding (FLAG-tagged LAP* C/EBPβ): binds
binding [4]: binds
binding [6]: binds
binding [7]: no binding
Substance: DNA methyltransferase-associated protein DMAP1 (from UniProt Q9NPF5 1-467)

binding [3]: binds
Substance: transducin-like enhancer protein TLE3 (from UniProt Q04726 1-772)

binding [4]: binds
binding [6]: binds
binding [7]: no binding
Substance: YEATS4 (from UniProt O95619 1-227)
